Test results reported in patent US8513266B2, “Methods of treating cancer using pyridopyrimidinone inhibitors of PI3K alpha” (priority 2007, dated 2013).
At least one compound was matched to its structure with a doubt left.

System: PC-3 human prostate adenocarcinoma cells
Assay type: in vivo
Experimental: Female and male athymic nude mice (NCr) 5-8 weeks of age and weighing approximately 20-25 g were used in the following model. Prior to initiation of a study, the animals were allowed to acclimate for a minimum of 48 h. During these studies, animals were provided food and water ad libitum and housed in a room conditioned at 70-75° F. and 60% relative humidity. A 12 h light and 12 h dark cycle was maintained with automatic timers. All animals were examined daily for compound-induced or tumor-related deaths.
PC-3 human prostate adenocarcinoma cells were cultured in vitro in DMEM (Mediatech) supplemented with 20% Fetal Bovine Serum (Hyclone), Penicillin-Streptomycin and non-essential amino acids at 37° C. in a humidified 5% CO2 atmosphere. […] A transponder was implanted in each mouse for identification, and animals were monitored daily for clinical symptoms and survival. Body weights were recorded daily. […]
For subcutaneous or intradermal tumors, the mean tumor weight of each animal in the respective control and treatment groups was determined twice weekly during the study. Tumor weight (TW) was determined by measuring perpendicular diameters with a caliper, using the following formula: tumor weight (mg)=[tumor volume=length (mm)×width^2 (mm^2)]/2
Percent inhibition of tumor growth (TGI) is determined with the following formula: […]

Structure (SMILES): CO[C@H]1C[C@@H]2CC[C@@H](C)[C@@](O)(O2)C(=O)C(=O)N2CCCC[C@H]2C(=O)O[C@H]([C@H](C)C[C@@H]2CC[C@@H](O)[C@H](OC)C2)CC(=O)[C@H](C)/C=C(\C)[C@@H](O)[C@@H](OC)C(=O)[C@H](C)C[C@H](C)/C=C/C=C/C=C/1C [rapamycin, Rapamycin]
- induction in the fraction of apoptotic cells (TUNEL) (FIG. 7) (PC-3 tumors resected at end of efficacy study, Compound A, rapamycin, monotherapy or combined): did not exert significant pro-apoptotic effects
- tumor growth inhibition (FIG. 2) (PC-3 xenograft, Compound A 100 mg/kg q2d oral, rapamycin 5 mg/kg i.p. daily, combination of both): Significant tumor growth inhibition
